PubChem BioAssay AID686937 – Drosophila RNAi Screening Center | 2013
In all, the deposit lists about 23,000 reagents; this is an unselected part of those that have a named target and a result. 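Reduced-secretion tags in replicate 1 do not always agree with the z-scores; no criterion for assigning the tags was given.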 Reagents against one gene are numbered here. A plus sign joins genes that one reagent is predicted to hit. Not stated in the record: the amount of reagent.

Test: 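Genes whose loss weakens secretory pathway function in fly cells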 (primary screen)
System: Drosophila S2 cells expressing secreted horseradish peroxidase
Reagents: long dsRNA against Drosophila genes
Duration: about 5.5 days (5 days dsRNA, then 12 h reporter induction)
Treatment: reporter expression induced after 5 days of dsRNA, read 12 h later; inducer not stated
Detection: 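Chemiluminescent measurement of peroxidase in the medium 12 h after reporter induction, following 5 days of dsRNA, given as a z-score per plate; higher means more secretion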
Direction: z-score: higher = more reporter secreted into medium

z-score, replicate 1 | z-score, replicate 2 | phenotype, replicate 1 | Target gene | dsRNA no.
-0.09 | -0.33 | – | CG33108 | 1
0.13 | 0.29 | – | CG12341 | 1
0.25 | 0.25 | – | ft (fat) | 1
0.13 | 0.16 | – | Gbeta76C (G protein beta subunit 76C) | 1
0.51 | 0.51 | – | CG33252 | 1
-0.05 | 0.25 | – | Swim (Secreted Wg-interacting molecule) | 1
0.49 | 0.3 | – | CG4332 | 1
-0.1 | 0.31 | – | sw + Sdic4 + Sdic3 + 2 more | 1
0.83 | 0.44 | – | CG30016 | 1
0.59 | 0.68 | – | CG15537 | 1
0.37 | 0.46 | – | MBD-like (Methyl-CpG binding domain protein-like) | 1
-0.19 | 0.02 | – | Vha100-5 (Vacuolar H[+] ATPase 100kD subunit 5) | 1
0.58 | 0.32 | – | Fs (Follistatin) | 1
-0.04 | 0.13 | – | Fs (Follistatin) | 2
0.37 | 0.38 | – | CG14630 | 1
0.26 | 0 | – | CG14630 | 2
0.11 | 0.43 | – | l(2)k09913 (lethal (2) k09913) | 1
0.06 | 0.22 | – | Mgat3 | 1
0.44 | 0.46 | – | HSPBAP1 (HSPB1 associated protein 1) | 1
-0.05 | -0.3 | – | CG31975 + ovm | 1
0.35 | 0.07 | – | CG15831 (retired record) | 1
0.17 | 0.58 | – | CG7497 | 1
0 | 0.03 | – | CG32655 | 1
0.19 | 0.47 | – | CG15803 | 1
0.36 | 0.54 | – | Kdm4A (Lysine demethylase 4A) | 1
-0.72 | 0.26 | – | olf186-M | 1
-6.05 | -0.21 | reduced secretion | Tango5 (Transport and Golgi organization 5) | 1
0.42 | 0.29 | – | betaNACtes1 (Nascent-associated complex beta-subunit-like, testis 1) | 1
-7.3 | 0.35 | reduced secretion | Galphao (G protein alpha subunit o) | 1
0.03 | -0.11 | – | Npl4 (Nuclear protein localization 4) | 1
-0.2 | -0.29 | – | Npl4 (Nuclear protein localization 4) | 2
-0.41 | -0.25 | – | Marf (Mitochondrial assembly regulatory factor) | 1
-0.03 | 0.27 | – | EloB (Elongin B) | 1
-0.14 | -1.18 | – | Rev1 (DNA polymerase Rev1) | 1
0.24 | 0.41 | – | HP1D3csd (Heterochromatin Protein 1D3 chromoshadow domain) | 1
-0.1 | 0.23 | – | CG10510 | 1
0.5 | 0.46 | – | spz (spatzle) | 1
-0.87 | -0.69 | – | Nacalpha (Nascent polypeptide associated complex protein alpha subunit) | 1
0 | 0.08 | – | cerv (cervantes) | 1
-0.04 | 0.15 | – | TBPH (TAR DNA-binding protein-43 homolog) | 1
-1.17 | -2.08 | – | Dhdds (Dehydrodolichyl diphosphate synthase subunit) | 1
-0.04 | 0.3 | – | CG43318 | 1
0.51 | 0.34 | – | Nsf2 (N-ethylmaleimide-sensitive factor 2) | 1
0.34 | 0.1 | – | CG3494 | 1
0.04 | 0.47 | – | wnd (wallenda) | 1
0.45 | 0.46 | – | wnd (wallenda) | 2
0.11 | -0.58 | – | wnd (wallenda) | 3
0.6 | 0.61 | – | CG32040 | 1
1.12 | 0.09 | – | CG32040 | 2
0.13 | 0.39 | – | CG43100 (retired record) | 1
-0.01 | 0.15 | – | tHMG2 (testis-enriched HMG-box-containing protein 2) | 1
-1.12 | -0.42 | – | CG34181 | 1
0.22 | -0.03 | – | mthl1 (methuselah-like 1) | 1
0.3 | 0.35 | – | CG5768 | 1
0.32 | 0.28 | – | Ir93a (Ionotropic receptor 93a) | 1
0.32 | 0.39 | – | Ir93a (Ionotropic receptor 93a) | 2
0.12 | 0.13 | – | CG7881 | 1
-0.14 | 0.15 | – | CG17376 | 1
0.08 | 0.31 | – | abo (abnormal oocyte) | 1
0.33 | 0.36 | – | dgt6 (dim gamma-tubulin 6) | 1
0.27 | 0.28 | – | Sulf1 (Sulfated) | 1
0.61 | 0.66 | – | Sulf1 (Sulfated) | 2
0.35 | 0.52 | – | Art2 (Arginine methyltransferase 2) | 1
-2.85 | -3.85 | reduced secretion | Syx18 (Syntaxin 18) | 1
0.39 | 0.5 | – | CG17752 | 1
-3.02 | -2.81 | reduced secretion | orb (oo18 RNA-binding protein) | 1
-0.27 | 0.03 | – | IntS3 (Integrator 3) | 1
-0.06 | 0.15 | – | CG15480 | 1
-0.27 | -0.41 | – | Obp56h (Odorant-binding protein 56h) | 1
0.17 | 0.03 | – | Upf3 | 1
0.34 | 0.46 | – | PAN2 (Poly(A)-binding protein-dependent poly(A) ribonuclease 2) | 1
0.4 | 0.44 | – | CG12091 | 1
0.27 | 0.26 | – | CG8774 | 1
0.26 | 0.23 | – | CG13800 (retired record) | 1
0.43 | 0.44 | – | CG17930 | 1
0.3 | 0.31 | – | CG14086 | 1
0.4 | 0.38 | – | CG2794 | 1
-0.23 | 0.05 | – | CG31678 | 1
0.06 | -0.06 | – | CG31678 | 2
-0.11 | -0.49 | – | CG4882 | 1
-1.06 | -1 | – | Rab35 | 1
-0.26 | 0.49 | – | Rgk1 (Rad, Gem/Kir family member 1) | 1
-0.65 | 0.14 | – | Rgk1 (Rad, Gem/Kir family member 1) | 2
0.52 | 0.35 | – | Rgk1 (Rad, Gem/Kir family member 1) | 3
-0.95 | 0.08 | – | Rgk1 (Rad, Gem/Kir family member 1) | 4
-2.71 | -1.88 | reduced secretion | Rgk1 (Rad, Gem/Kir family member 1) | 5

Targets listed so far whose gene name begins with I or i:
z-score, replicate 1 | z-score, replicate 2 | phenotype, replicate 1 | Target gene | dsRNA no.
0.32 | 0.28 | – | Ir93a (Ionotropic receptor 93a) | 1
0.32 | 0.39 | – | Ir93a (Ionotropic receptor 93a) | 2
-0.27 | 0.03 | – | IntS3 (Integrator 3) | 1
